For the assay, the system named is P388 leukemia ip, CD2F1 mice, survival T/C. The assay can be described thus: NCI In Vivo Anticancer Drug Screen. Data for tumor model P388 Leukemia (intraperitoneal) in CD2F1 (CDF1) mice. As to conditions: T/C endpoint: median survival time, higher T/C = longer survival.
The mark [1] stands for this setting: dose: 60.0 mg/kg/injection, schedule: Q01DX005 (ip), vehicle: Klucel (hydroxypropylcellulose) (HPC).
Where [2] appears, read: dose: 50.0 mg/kg/injection, schedule: Q01DX009 (ip), vehicle: Klucel (hydroxypropylcellulose) (HPC).
Where [3] appears, read: dose: 200.0 mg/kg/injection, schedule: Q01DX009 (ip), vehicle: Klucel (hydroxypropylcellulose) (HPC).
The mark [4] stands for this setting: dose: 100.0 mg/kg/injection, schedule: Q01DX009 (ip), vehicle: Klucel (hydroxypropylcellulose) (HPC).
[5] abbreviates: dose: 200.0 mg/kg/injection, schedule: Q01DX005 (ip), vehicle: saline with Tween-80.
The mark [6] stands for this setting: dose: 50.0 mg/kg/injection, schedule: Q01DX005 (ip), vehicle: Klucel (hydroxypropylcellulose) (HPC).
Setting [7] is: dose: 100.0 mg/kg/injection, schedule: Q01DX005 (ip), vehicle: Klucel (hydroxypropylcellulose) (HPC).
Where [8] appears, read: dose: 200.0 mg/kg/injection, schedule: Q01DX005 (ip), vehicle: Klucel (hydroxypropylcellulose) (HPC).
Where [9] appears, read: dose: 12.5 mg/kg/injection, schedule: Q01DX009 (ip), vehicle: saline.
[10] abbreviates: dose: 50.0 mg/kg/injection, schedule: Q01DX009 (ip), vehicle: saline.
The mark [11] stands for this setting: dose: 400.0 mg/kg/injection, schedule: Q01DX001 (ip), vehicle: saline with Tween-80.
The mark [12] stands for this setting: dose: 200.0 mg/kg/injection, schedule: Q01DX009 (ip), vehicle: saline with Tween-80.

The list shows only some results of the screen, not a fair sample: it is rich in T/C values a quarter to a half above the control, in often repeated tests (any T/C) and in doses without a T/C. Other doses and runs of a compound stand elsewhere. T/C is the treated group as % of the vehicle group. Some entries give survivors of the animals treated and no T/C: the source holds a T/C of zero for them, seemingly a mark for toxic or unscored doses. Some doses without a T/C left all or most animals alive at the check, yet need not have been tolerated: survival well below the control is almost never listed, so the zero probably covers shortened survival too. Survivors were counted at the toxicity check, usually on the fifth day, unless a day is given; later deaths do not show. Schedule codes are those of the source, taken here to give the interval after Q, in days (D) or hours (H), and the number of doses after X. Some entries hold several experiments; their values stand side by side, smallest first. For survival time, the PubChem record calls one and a half times the control and up active, and a quarter to a half above the control has no call in these data; cut-offs in other NCI protocols can differ.

`CC(=O)N1CCCC2=C1CCC2`: the survivor count was 2 of 6 (dose: 200.0 mg/kg/injection, schedule: Q04DX003 (ip), vehicle: saline) and 0 of 6 (dose: 400.0 mg/kg/injection, schedule: Q04DX003 (ip), vehicle: saline).

For the compound `O=C(O)c1cnc2c(C(F)(F)F)cccc2c1Nc1ccc2c(c1)OCO2`, the survivor count under setting [1] is given as 6 of 6.

Turning to `Cc1[nH]c(=O)[nH]c(=O)c1/C=C/C(=O)NC(CO)CSC(C)C` (configuration not stated), under “dose: 100.0 mg/kg/injection, schedule: Q01DX009 (ip), vehicle: other”, the survivor count is listed as 6 of 6.

Turning to `O=[N+]([O-])c1cnc(Oc2ccccc2[N+](=O)[O-])nc1`, the survivor count is given as 6 of 6 under setting [2] and 3 of 6 under setting [3].

As for `Clc1ccc(-c2csc3cccc[n+]23)cc1`, the survivor count is, setting by setting: under setting [2], 0 of 6; under setting [4], 1 of 6; under setting [3], 0 of 6.

For `O=[N+]([O-])c1cc(S(=O)(=O)O)cc([N+](=O)[O-])c1Cl`, the survivor count under setting [3] was 2 of 6.

For `CC1OP(=S)(S)OC1C` (configuration not stated), the survivor count (dose: 200.0 mg/kg/injection, schedule: Q01DX005 (ip), vehicle: saline) is on record as 4 of 5.

As to `C1CN1c1nc(N2CC2)nc(N2CC2)n1`, the T/C by setting is: (dose: 0.1 mg/kg/injection, schedule: Q01DX009 (ip), vehicle: saline) 130 % of control; (dose: 0.12 mg/kg/injection, schedule: Q01DX009 (ip), vehicle: saline) 130 % of control; (dose: 0.25 mg/kg/injection, schedule: Q01DX009 (ip), vehicle: saline) 145 % of control. The survivor count by setting is: (dose: 1.0 mg/kg/injection, schedule: Q01DX009 (ip), vehicle: saline) 6 of 6; (dose: 2.0 mg/kg/injection, schedule: Q01DX009 (ip), vehicle: saline) 6 of 6.

For the compound `O=C1NC(=O)C2CC3C(CC12)C1C(=O)NC(=O)C31` (configuration not stated), the survivor count under setting [5] was 1 of 6.

With `COc1ccc(C(NCCn2cnc3c2c(=O)n(C)c(=O)n3C)c2ccccc2)cc1` (configuration not stated), the survivor count (dose: 50.0 mg/kg/injection, schedule: Q01DX005 (ip), vehicle: other) is reported as 0 of 5; the survivor count (dose: 100.0 mg/kg/injection, schedule: Q01DX005 (ip), vehicle: other) was 0 of 5; the survivor count (dose: 200.0 mg/kg/injection, schedule: Q01DX005 (ip), vehicle: other) is 0 of 5.

With `COc1ccc2c(c1)[C@@]13CCCCC1[C@@H](C2)NCC3` (some centres not stated), the survivor count (dose: 200.0 mg/kg/injection, schedule: Q04DX002 (ip), vehicle: Klucel (hydroxypropylcellulose) (HPC)) is 0 of 6 and the survivor count (dose: 400.0 mg/kg/injection, schedule: Q04DX002 (ip), vehicle: Klucel (hydroxypropylcellulose) (HPC)) is listed as 0 of 6.

Turning to `c1ccc2[nH]c(CN(CCN(Cc3nc4ccccc4[nH]3)Cc3nc4ccccc4[nH]3)Cc3nc4ccccc4[nH]3)nc2c1`, the survivor count reads like this: under setting [6], 1 of 5; under setting [7], 0 of 5; under setting [8], 0 of 5.

As for `O=C1Nc2ccccc2/C1=C/c1ccc(Cl)c(Cl)c1`, the survivor count is, setting by setting: under setting [2], 6 of 6; under setting [4], 6 of 6; under setting [3], 3 of 6.

Turning to `O=[N+]([O-])c1ccc(CS(=O)(=O)C(Cl)(Cl)Cl)o1`, the T/C is, setting by setting: under setting [9], 115 % of control; (dose: 25.0 mg/kg/injection, schedule: Q01DX009 (ip), vehicle: saline) 92, 99, 109, 110 % of control. For the same compound, the survivor count by setting is: under setting [9], 3 of 6 and 5 of 6; under setting [10], 4 of 6; (dose: 100.0 mg/kg/injection, schedule: Q01DX009 (ip), vehicle: suspension in saline) 6 of 6.

Turning to `O=[N+]([O-])c1ccc(/C=C(/c2ccc([N+](=O)[O-])o2)S(=O)(=O)C(Cl)(Cl)Cl)cc1`, the survivor count reads like this: (dose: 50.0 mg/kg/injection, schedule: Q01DX009 (ip), vehicle: suspension in saline) 4 of 6; (dose: 200.0 mg/kg/injection, schedule: Q01DX009 (ip), vehicle: suspension in saline) 6 of 6.

Turning to `COc1ccc(Br)cc1-c1cc2cccc[n+]2o1`, the survivor count under setting [10] is on record as 2 of 6.

Consider `CC(C)(C)N=C(CCNC1CCCCC1)Nc1cccc(C(F)(F)F)c1`, for which the survivor count runs as follows: (dose: 200.0 mg/kg/injection, schedule: Q01DX001 (ip), vehicle: saline with Tween-80) 3 of 6; under setting [11], 0 of 6.

For the compound `COc1ccc(-c2n(O)c(C)c(C)[n+]2[O-])cc1`, the survivor count (dose: 100.0 mg/kg/injection, schedule: Q01DX009 (ip), vehicle: saline with Tween-80) is recorded as 4 of 6 and the survivor count under setting [12] is recorded as 0 of 6.

For `Nc1ccc2ccc(N)nc2c1`, the survivor count was 3 of 6 (dose: 100.0 mg/kg/injection, schedule: Q01DX009 (ip), vehicle: acid diluted with saline) and 0 of 6 (dose: 200.0 mg/kg/injection, schedule: Q01DX009 (ip), vehicle: acid diluted with saline).

For the compound `CN=C(NC)c1ccc(NC(=O)c2ccc(C(=O)Nc3ccc(C(=NC)NC)cc3)c([N+](=O)[O-])c2)cc1`, where the note is “dose: 6.25 mg/kg/injection, schedule: Q01DX005 (ip), vehicle: Klucel (hydroxypropylcellulose) (HPC)”, the T/C was 127 and 140 % of control. Moreover, the survivor count (dose: 12.5 mg/kg/injection, schedule: Q01DX005 (ip), vehicle: Klucel (hydroxypropylcellulose) (HPC)) is 1 of 6 and 2 of 6; the survivor count (dose: 25.0 mg/kg/injection, schedule: Q01DX005 (ip), vehicle: Klucel (hydroxypropylcellulose) (HPC)) is 0 of 6; the survivor count under setting [6] is listed as 0 of 6; the survivor count under setting [7] was 0 of 6; the survivor count under setting [8] is reported as 0 of 6.

Regarding `N#CC12C3C4C5C3C1C(C42)n1c(=O)n(-c2ccccc2)c(=O)n15` (configuration not stated), under setting [2], the T/C is 147 % of control.

Consider `CC1NNC(=O)C1(Br)Br` (configuration not stated), for which the survivor count (dose: 25.0 mg/kg/injection, schedule: Q01DX009 (ip), vehicle: gum acacia) is 0 of 6.

On to `CCOC(=O)/N=[N+](\[O-])c1cccc(Cl)c1`, for which the survivor count under setting [11] is on record as 0 of 6.

In the case of `CNC(=O)OCc1c(COC(=O)NC)c2n(c1C)-c1ccccc1CCC2`, the T/C is, setting by setting: (dose: 5.0 mg/kg/injection, schedule: Q01DX005 (ip), vehicle: Klucel (hydroxypropylcellulose) (HPC)) 147 % of control; (dose: 10.0 mg/kg/injection, schedule: Q01DX005 (ip), vehicle: Klucel (hydroxypropylcellulose) (HPC)) 141 % of control. In addition, the survivor count is listed as 6 of 6 (dose: 20.0 mg/kg/injection, schedule: Q01DX005 (ip), vehicle: Klucel (hydroxypropylcellulose) (HPC)); 0 of 6 (dose: 40.0 mg/kg/injection, schedule: Q01DX005 (ip), vehicle: Klucel (hydroxypropylcellulose) (HPC)); 0 of 6 under setting [1]; 0 of 6 (dose: 120.0 mg/kg/injection, schedule: Q01DX005 (ip), vehicle: Klucel (hydroxypropylcellulose) (HPC)); 0 of 6 (dose: 240.0 mg/kg/injection, schedule: Q01DX005 (ip), vehicle: Klucel (hydroxypropylcellulose) (HPC)).

`CC1C(N)CC2CC1C2(C)C` (configuration not stated): the survivor count under setting [12] was 1 of 6.

Turning to `CC12CCC(C/C1=N\[N+](=O)[O-])C2(C)C` (configuration not stated), the survivor count (dose: 100.0 mg/kg/injection, schedule: Q01DX009 (ip), vehicle: saline) was 3 of 6.

With `CO/N=C/c1ccc[n+](C)c1`, under setting [5], the survivor count is given as 1 of 6.

As for `Nc1ccc(C(=O)Oc2ccc([N+](=O)[O-])cc2)cc1`, the survivor count (dose: 400.0 mg/kg/injection, schedule: Q04DX003 (ip), vehicle: saline with Tween-80) is given as 6 of 6.
